This is an account of results in publication PMC4358366, “Identification of ‘erasers’ for lysine crotonylated histone marks using a chemical proteomics approach” (eLife, 2014).

Protein sequences, listed by entry. Tags and fused reporters are not part of them. Residues count along the entry.
UniProt Q96EB6, residues 193-747: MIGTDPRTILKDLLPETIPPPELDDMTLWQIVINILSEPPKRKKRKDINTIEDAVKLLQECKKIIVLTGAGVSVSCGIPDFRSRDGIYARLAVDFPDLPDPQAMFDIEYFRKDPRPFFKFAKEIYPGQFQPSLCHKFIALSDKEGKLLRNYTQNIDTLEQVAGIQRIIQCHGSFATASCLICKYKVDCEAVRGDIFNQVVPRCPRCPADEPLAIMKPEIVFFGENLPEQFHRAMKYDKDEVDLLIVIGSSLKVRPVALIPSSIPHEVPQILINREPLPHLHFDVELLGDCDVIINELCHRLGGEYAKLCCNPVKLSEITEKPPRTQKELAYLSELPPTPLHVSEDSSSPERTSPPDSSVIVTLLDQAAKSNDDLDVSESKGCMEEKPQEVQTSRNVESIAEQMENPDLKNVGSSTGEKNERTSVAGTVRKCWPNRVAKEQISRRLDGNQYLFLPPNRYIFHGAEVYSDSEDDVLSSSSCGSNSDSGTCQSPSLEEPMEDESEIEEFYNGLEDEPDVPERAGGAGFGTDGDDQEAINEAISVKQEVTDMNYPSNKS

Assay [1] addresses recombinant human Sirt1 (193–747) (human) (UniProt Q96EB6). The assay can be described thus: ITC; 25 °C, MicroCal iTC200; 100–200 μM protein in the cell titrated with 1.5–2.5 mM peptide; fit to a single set of independent sites; both purified.
In assay [2] the target is T1, recombinant human Sirt2 (36–356) (human) (UniProt Q8IXJ6).
T1 sequence: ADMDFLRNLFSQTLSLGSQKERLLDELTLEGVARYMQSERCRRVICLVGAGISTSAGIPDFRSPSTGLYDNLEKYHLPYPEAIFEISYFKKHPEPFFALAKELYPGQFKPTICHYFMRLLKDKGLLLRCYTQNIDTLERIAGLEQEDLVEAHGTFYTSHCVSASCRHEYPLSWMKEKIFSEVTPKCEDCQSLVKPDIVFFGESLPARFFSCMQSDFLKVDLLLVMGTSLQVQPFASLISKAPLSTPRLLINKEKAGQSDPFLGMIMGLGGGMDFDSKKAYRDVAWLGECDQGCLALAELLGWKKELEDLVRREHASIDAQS
Described as above.

No constants are given. Whether binding was seen depends on the method and setting. Some binding calls cover weakened binding; strength is not graded here.

On to “H3K4Cr (1–15) peptide (from UniProt P68431 2-16)”, for which the binding entry in assay [1] and in assay [2] was “binds weakly” throughout.
